Data from PubChem BioAssay AID2685 (National Center for Advancing Translational Sciences (NCATS), 2010).
This is one part of the list. These are further read-outs of the screen, such as a control signal, another cell line or another target. No call is given for them. Most of these compounds were active or inconclusive in the main read-out, so they are no random draw. Potencies come from curve fits of mixed quality, noted in brackets.

Test: qHTS Assay for Lipid Storage Modulators in Drosophila S3 Cells;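 on cell number change: cells counted by Cell Tracker Red CMTPX staining in the red channel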
Conditions: BODIPY lipid droplet fluorescence, 18-24 h; for cell number change: measured here: cell count max response, cells fed with added oleic acid
Procedure, shortened: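 Drosophila S3 cells loaded with oleic acid (400 uM, as added) and compounds at several concentrations; lipid droplets imaged by 488-nm laser-scanning cytometry, 500–530 nm intensity and object ratio to cell channel. Percent activity normalized to 20 uM Triacsin C.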

[1] = measured here: cell number channel AC50, cells fed with added oleic acid
[2] = measured here: lipid fluorescence (Fed channel) AC50, cells fed with added oleic acid

SMILES	cell number change [%]	AC50 [1]	AC50 [2]
CCOC(=O)c1c(C)[nH]c(C)c1C(=O)CN1C(=O)NC2(CCC(C)CC2)C1=O (configuration not stated)	32.1	16400 nM [rising, single point]	29100 nM [rising, single point]
Cc1ccnc(NC(=O)CCCOc2ccc(Cl)cc2C)c1	17.1	–	–
Cc1ccc(/C=N/Nc2nncc(-c3ccccc3)n2)o1	18.9	–	–
O=C(COC(=O)c1cccc(F)c1)Nc1cccnc1Cl	42.1	32600 nM [rising, single point]	411 nM [rising, partial curve, poor fit]
COc1ccccc1NC(=O)CN(Cc1ccco1)C(=O)c1ccc(-n2nc(C)cc2C)cc1	-17.3	–	–
COc1ccccc1-c1nc2n(n1)C(c1cccs1)C(C(=O)Nc1cccnc1)=C(C)N2 (configuration not stated)	–	164 nM [rising, full curve]	206 nM [rising, partial curve, poor fit]
c1cc2c(cnc3cscc32)s1	31.3	16400 nM [rising, single point]	–
Cc1c2c(nc3ccccc13)OCC2	14	–	920 nM [rising, full curve, poor fit]
Cc1ccc(NC(=O)NCC2CCN(Cc3cccc(Cl)c3)CC2)cc1Cl	-98.8	29100 nM [falling, single point]	–
CC(=O)ONC(=Nc1ccccc1)c1nonc1N	-17.4	–	731 nM [falling, full curve]
CC1CC(C)CN(C(=O)CSc2nc(Cc3cccs3)nc3ccccc23)C1 (configuration not stated)	–	–	130 nM [rising, full curve, poor fit]
CSc1ccc(/C=C(/NC(=O)c2ccco2)C(=O)N2CCCCC2)cc1	-22.1	–	–
Cc1cccc(-n2c(N)c(C(=O)NCCN3CCOCC3)c3nc4ccccc4nc32)c1	-20	–	29100 nM [rising, single point]
CCCc1cc(=O)[nH]c(SCC(=O)Nc2ccc(Cl)c(S(=O)(=O)N3CCOCC3)c2)n1	-4.97	–	9200 nM [falling, partial curve]
O=C(Nc1ncc([N+](=O)[O-])s1)c1cccc([N+](=O)[O-])c1	–	–	1300 nM [falling, full curve, poor fit]
CC(C)(C)c1ccc(C(=O)N2CCC(C(=O)NCCC3=CCCCC3)CC2)cc1	-23.8	–	2910 nM [falling, partial curve, poor fit]
O=C1CN=C(Nc2cccc(C(F)(F)F)c2)N1C1CCCC1	10.8	–	58 nM [rising, full curve, poor fit]
C=CCn1c(SCC(=O)/C(C#N)=C(\C)N)nc2sc(C)c(C)c2c1=O	9.35	–	580 nM [rising, full curve, poor fit]
CC(C)n1nccc1N(Cc1ccc(C#N)cc1)S(=O)(=O)c1ccccc1	-18.4	–	–
CCOC(=O)CC1C(=O)NCCN1S(=O)(=O)c1cccc(C(F)(F)F)c1 (configuration not stated)	14.6	–	–

SMILES	cell number change [%]	AC50 [1]	AC50 [2]
CCc1nnc(NC(=O)c2cccc(C(=O)Nc3nnc(CC)s3)n2)s1	-21.6	–	8200 nM [falling, partial curve, poor fit]
CC1(C)Cc2ccccc2-c2nnc(-c3ccccc3)n21	11.7	–	–
O=C(O)C1CCCN1C1=NS(=O)(=O)c2ccccc21 (configuration not stated)	2.56	–	6510 nM [rising, single point]
CCN1CCC(=NNC(=O)c2ccco2)CC1	9.86	–	146 nM [rising, full curve, poor fit]
CCCCNC(=O)C1c2ccccc2Oc2ccccc21	31.8	–	16400 nM [rising, partial curve, poor fit]
O=C(CSc1nc(-c2ccccc2F)nc2nc[nH]c12)Nc1c(Cl)cc(Cl)cc1Cl	7.32	–	–
Cc1nnc(SCC(=O)Nc2cc(C(C)(C)C)nn2-c2ccccc2)s1	-37.2	32600 nM [falling, single point]	23100 nM [falling, partial curve]
O=C(CNC(=O)c1ccccc1Cl)NC1CCN(Cc2ccccc2)CC1	-34.1	1460 nM [falling, partial curve]	651 nM [falling, single point]
CC1=C(C)CC(C(=O)Nc2ccc(C(N)=O)cc2)C(C(=O)O)C1 (configuration not stated)	4.73	–	32.6 nM [falling, full curve, poor fit]
CCOc1ccc(N(CC(=O)NC2CCCC2)C(=O)CCCC(=O)Nc2ccccn2)cc1	3.6	–	–
N#Cc1c(Cl)nsc1NN	-34.2	517 nM [falling, full curve]	29100 nM [rising, single point]
Cc1ccc(-c2ccc(/C=N/N3C(=O)C4C5C=CC(CC5)C4C3=O)o2)c([N+](=O)[O-])c1 (configuration not stated)	27.8	4610 nM [rising, full curve, poor fit]	6510 nM [rising, single point]
CC1(C)CC2CC(C)(CN2C(=O)CN2C(=O)c3ccccc3C2=O)C1 (configuration not stated)	6.33	–	580 nM [rising, partial curve]
NC(=O)C1(NC(=O)[C@@H]2CC3(CC(c4cccc(NC(=O)[C@@H]5CCC(=O)N5)c4)=NO3)CN2C(=O)Cc2ccc(C(F)(F)F)cc2)CC1 (some centres not stated)	13.9	–	146 nM [rising, full curve, poor fit]
O=S(=O)(Nc1cccc(S(=O)(=O)N2CCOCC2)c1)c1ccc(Cl)s1	-8.2	–	92 nM [falling, full curve, poor fit]
CCN(CC)S(=O)(=O)c1ccc(C(=O)Nc2ncn(Cc3ccccc3)n2)cc1	-2.53	231 nM [rising, single point]	–
CCCc1cc(=O)[nH]c(SCC(=O)Nc2ccccc2C#N)n1	10.3	–	103 nM [falling, full curve, poor fit]
CCOc1cc(CNCCc2ccc(S(N)(=O)=O)cc2)ccc1OCc1ccc(Cl)cc1	-47	32600 nM [falling, single point]	32600 nM [falling, single point]
Cc1cc(NC(=O)CS(=O)(=O)c2ccc(Cl)cc2)no1	–	–	116 nM [falling, full curve, poor fit]
Cc1cccn2c(=O)c3cc(C(=O)NCCc4ccccc4)c(=N)n(CC4CCCO4)c3nc12 (configuration not stated)	2.42	–	4610 nM [falling, partial curve, poor fit]

SMILES	cell number change [%]	AC50 [1]	AC50 [2]
O=C(Cn1c(N2CCN(C/C=C/c3ccccc3)CC2)nc2ccccc21)c1ccccc1	4.69	731 nM [rising, single point]	651 nM [rising, single point]
CCOCCn1c(SCC)nc2c1c(=O)[nH]c(=O)n2C	–	–	25900 nM [falling, single point]
Cc1cccc(CCN2C(N(C)C)=NC[C@@H]2CC(C)C)c1	-16.5	–	29100 nM [rising, single point]
O=C1CCCN1CCCNC(=S)Nc1ccc(F)cc1	-35	32600 nM [falling, single point]	–
COc1cc(CNC(C)(C)CO)cc(Br)c1OCc1ccccc1	7.69	4.61 nM [falling, full curve, poor fit]	6510 nM [falling, partial curve, poor fit]
Fc1ccccc1-c1n[nH]c(=S)n1/N=C/c1c[nH]c2ccccc12	–	–	2590 nM [rising, full curve]
O=C1CS/C(=N/N=C/c2ccccc2OS(=O)(=O)c2ccccc2)N1	4.49	–	4110 nM [rising, full curve]
CCc1nc(N=Nc2c(O)[nH]c3ccccc23)c2c3c(sc2n1)CCC3	-43.4	1300 nM [falling, full curve]	184 nM [rising, full curve, poor fit]
Cc1ccc(N(Cc2cc(=O)[nH]c3ccccc23)C(=O)CCl)c(C)c1	-20.8	–	29100 nM [rising, single point]
COC(=O)c1ccc(-n2cnc3ccccc32)nc1	2.76	–	–
O=c1[nH]c(=S)[nH]cc1Oc1ccc(Cl)cc1Cl	-9.35	–	–
COc1ccc(-c2cc([C@H]3[C@H]4C=CC[C@@H](C)[C@@H]4C(=O)N3Cc3ccccc3)ccc2F)cc1	-0.655	–	651 nM [rising, partial curve, poor fit]
Cc1ccc(NC(=O)COc2coc(CN3CCN(Cc4ccccc4)CC3)cc2=O)cc1	-50	16400 nM [falling, single point]	–
CCOC(=O)C1(Cc2ccccc2C)CCCN(C(=O)c2cc(CC)nn2C)C1 (configuration not stated)	2.76	–	920 nM [falling, full curve, poor fit]
CC1CCCN(C(=O)c2ccc(OC3CCN(CCc4ccccc4)CC3)cc2)C1 (configuration not stated)	44.9	20600 nM [rising, partial curve, poor fit]	23100 nM [rising, single point]
COc1ccc(C(C(=O)NC2CCCC2)N(C(=O)c2ccco2)c2cccc(C(C)=O)c2)cc1OC (configuration not stated)	7.69	–	–
CCC(=O)C1CCCN(C(=O)c2ccc(OC)c(OC3CCN(C(C)=O)CC3)c2)C1 (configuration not stated)	9.41	–	–
O=C(COC(=O)/C=C/c1cccc(Br)c1)NCCC1=CCCCC1	-24.8	58 nM [falling, full curve, poor fit]	–
C=CCN(CC=C)C(=O)C1CCN(S(=O)(=O)c2ccc(N3CCCC3=O)cc2)CC1	-21.5	–	–
O=[N+]([O-])c1cccc(NC(=S)N2CCCC2)c1	6.07	–	29100 nM [rising, single point]

Arranged by heavy-atom count (ascending): part of the list above
SMILES	cell number change [%]	AC50 [1]	AC50 [2]
O=C1CS/C(=N/N=C/c2ccccc2OS(=O)(=O)c2ccccc2)N1	4.49	–	4110 nM [rising, full curve]
O=C(Cn1c(N2CCN(C/C=C/c3ccccc3)CC2)nc2ccccc21)c1ccccc1	4.69	731 nM [rising, single point]	651 nM [rising, single point]
COc1ccc(C(C(=O)NC2CCCC2)N(C(=O)c2ccco2)c2cccc(C(C)=O)c2)cc1OC (configuration not stated)	7.69	–	–
